Measured values: the supplement of paper PMC10849652
This is one part of the list.

Chains of the proteins cited; added tags and fusions are not shown. Lines headed by an entry give the natural chain unless they say otherwise; changes in a name come on top.
UniProt O95926: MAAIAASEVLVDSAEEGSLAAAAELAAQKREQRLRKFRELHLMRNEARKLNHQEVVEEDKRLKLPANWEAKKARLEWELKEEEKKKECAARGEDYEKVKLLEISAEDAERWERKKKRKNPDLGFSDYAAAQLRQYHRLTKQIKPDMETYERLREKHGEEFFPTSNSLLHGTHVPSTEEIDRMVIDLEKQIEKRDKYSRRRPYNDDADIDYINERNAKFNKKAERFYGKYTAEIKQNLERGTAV
UniProt Q6NXT6: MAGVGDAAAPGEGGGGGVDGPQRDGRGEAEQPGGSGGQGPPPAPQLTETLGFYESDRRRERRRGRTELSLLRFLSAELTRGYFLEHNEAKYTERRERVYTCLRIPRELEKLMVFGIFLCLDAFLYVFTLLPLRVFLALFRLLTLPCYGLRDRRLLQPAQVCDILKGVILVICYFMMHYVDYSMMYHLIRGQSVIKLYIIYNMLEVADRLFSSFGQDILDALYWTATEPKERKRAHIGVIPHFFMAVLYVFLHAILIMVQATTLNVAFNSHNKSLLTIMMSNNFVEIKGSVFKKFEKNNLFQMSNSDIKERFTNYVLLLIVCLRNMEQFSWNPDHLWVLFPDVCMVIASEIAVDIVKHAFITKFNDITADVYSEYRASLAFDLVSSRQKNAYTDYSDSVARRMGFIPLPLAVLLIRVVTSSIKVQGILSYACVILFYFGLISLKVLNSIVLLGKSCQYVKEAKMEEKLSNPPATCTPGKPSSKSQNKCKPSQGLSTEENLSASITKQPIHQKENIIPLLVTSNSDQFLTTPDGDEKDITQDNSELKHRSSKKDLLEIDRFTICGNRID
UniProt Q9P2W9: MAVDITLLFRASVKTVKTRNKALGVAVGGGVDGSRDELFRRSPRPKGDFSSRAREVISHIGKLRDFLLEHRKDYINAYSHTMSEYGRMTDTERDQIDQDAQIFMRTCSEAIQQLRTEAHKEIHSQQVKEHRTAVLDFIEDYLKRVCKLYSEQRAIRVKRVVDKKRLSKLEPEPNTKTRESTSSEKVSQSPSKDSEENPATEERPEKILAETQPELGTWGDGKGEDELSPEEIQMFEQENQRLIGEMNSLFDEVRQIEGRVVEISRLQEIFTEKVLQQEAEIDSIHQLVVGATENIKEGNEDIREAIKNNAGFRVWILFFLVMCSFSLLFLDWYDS
UniProt O43760: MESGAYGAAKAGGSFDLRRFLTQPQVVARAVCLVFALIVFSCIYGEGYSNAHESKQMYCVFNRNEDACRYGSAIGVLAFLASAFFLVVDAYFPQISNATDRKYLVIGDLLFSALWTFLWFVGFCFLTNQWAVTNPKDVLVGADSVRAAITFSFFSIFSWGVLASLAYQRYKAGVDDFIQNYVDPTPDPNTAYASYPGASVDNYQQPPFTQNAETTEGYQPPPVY
UniProt Q5VSL9: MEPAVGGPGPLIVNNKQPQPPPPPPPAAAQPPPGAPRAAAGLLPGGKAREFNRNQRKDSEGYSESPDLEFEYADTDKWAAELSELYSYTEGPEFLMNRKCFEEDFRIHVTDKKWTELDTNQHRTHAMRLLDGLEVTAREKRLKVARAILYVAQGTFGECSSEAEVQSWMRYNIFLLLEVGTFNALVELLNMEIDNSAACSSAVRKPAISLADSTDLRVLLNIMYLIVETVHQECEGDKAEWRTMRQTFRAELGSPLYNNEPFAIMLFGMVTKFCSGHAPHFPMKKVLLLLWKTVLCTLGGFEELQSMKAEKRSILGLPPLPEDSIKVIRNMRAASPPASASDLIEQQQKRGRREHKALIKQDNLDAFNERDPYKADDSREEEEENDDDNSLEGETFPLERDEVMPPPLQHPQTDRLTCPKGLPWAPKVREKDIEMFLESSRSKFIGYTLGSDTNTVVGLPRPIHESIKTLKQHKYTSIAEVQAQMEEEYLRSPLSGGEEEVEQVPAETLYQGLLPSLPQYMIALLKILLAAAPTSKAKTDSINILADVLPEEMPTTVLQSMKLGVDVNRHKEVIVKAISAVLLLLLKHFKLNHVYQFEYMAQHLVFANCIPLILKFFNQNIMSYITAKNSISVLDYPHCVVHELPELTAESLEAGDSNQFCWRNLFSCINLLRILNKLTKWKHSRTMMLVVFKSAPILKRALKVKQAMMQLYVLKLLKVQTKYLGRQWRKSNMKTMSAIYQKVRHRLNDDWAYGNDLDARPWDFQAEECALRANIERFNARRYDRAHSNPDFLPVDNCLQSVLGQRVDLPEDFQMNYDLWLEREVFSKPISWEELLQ
UniProt O75683: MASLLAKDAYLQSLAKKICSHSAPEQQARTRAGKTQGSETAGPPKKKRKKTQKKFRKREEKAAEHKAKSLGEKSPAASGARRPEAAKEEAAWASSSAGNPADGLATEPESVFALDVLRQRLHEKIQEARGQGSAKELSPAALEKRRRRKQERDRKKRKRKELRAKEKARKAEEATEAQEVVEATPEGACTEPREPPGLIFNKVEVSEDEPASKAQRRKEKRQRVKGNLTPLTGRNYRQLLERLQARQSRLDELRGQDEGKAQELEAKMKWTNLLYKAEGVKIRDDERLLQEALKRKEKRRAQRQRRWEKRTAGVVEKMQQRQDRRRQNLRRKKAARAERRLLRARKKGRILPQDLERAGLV
UniProt O43426, whole entry, looked up: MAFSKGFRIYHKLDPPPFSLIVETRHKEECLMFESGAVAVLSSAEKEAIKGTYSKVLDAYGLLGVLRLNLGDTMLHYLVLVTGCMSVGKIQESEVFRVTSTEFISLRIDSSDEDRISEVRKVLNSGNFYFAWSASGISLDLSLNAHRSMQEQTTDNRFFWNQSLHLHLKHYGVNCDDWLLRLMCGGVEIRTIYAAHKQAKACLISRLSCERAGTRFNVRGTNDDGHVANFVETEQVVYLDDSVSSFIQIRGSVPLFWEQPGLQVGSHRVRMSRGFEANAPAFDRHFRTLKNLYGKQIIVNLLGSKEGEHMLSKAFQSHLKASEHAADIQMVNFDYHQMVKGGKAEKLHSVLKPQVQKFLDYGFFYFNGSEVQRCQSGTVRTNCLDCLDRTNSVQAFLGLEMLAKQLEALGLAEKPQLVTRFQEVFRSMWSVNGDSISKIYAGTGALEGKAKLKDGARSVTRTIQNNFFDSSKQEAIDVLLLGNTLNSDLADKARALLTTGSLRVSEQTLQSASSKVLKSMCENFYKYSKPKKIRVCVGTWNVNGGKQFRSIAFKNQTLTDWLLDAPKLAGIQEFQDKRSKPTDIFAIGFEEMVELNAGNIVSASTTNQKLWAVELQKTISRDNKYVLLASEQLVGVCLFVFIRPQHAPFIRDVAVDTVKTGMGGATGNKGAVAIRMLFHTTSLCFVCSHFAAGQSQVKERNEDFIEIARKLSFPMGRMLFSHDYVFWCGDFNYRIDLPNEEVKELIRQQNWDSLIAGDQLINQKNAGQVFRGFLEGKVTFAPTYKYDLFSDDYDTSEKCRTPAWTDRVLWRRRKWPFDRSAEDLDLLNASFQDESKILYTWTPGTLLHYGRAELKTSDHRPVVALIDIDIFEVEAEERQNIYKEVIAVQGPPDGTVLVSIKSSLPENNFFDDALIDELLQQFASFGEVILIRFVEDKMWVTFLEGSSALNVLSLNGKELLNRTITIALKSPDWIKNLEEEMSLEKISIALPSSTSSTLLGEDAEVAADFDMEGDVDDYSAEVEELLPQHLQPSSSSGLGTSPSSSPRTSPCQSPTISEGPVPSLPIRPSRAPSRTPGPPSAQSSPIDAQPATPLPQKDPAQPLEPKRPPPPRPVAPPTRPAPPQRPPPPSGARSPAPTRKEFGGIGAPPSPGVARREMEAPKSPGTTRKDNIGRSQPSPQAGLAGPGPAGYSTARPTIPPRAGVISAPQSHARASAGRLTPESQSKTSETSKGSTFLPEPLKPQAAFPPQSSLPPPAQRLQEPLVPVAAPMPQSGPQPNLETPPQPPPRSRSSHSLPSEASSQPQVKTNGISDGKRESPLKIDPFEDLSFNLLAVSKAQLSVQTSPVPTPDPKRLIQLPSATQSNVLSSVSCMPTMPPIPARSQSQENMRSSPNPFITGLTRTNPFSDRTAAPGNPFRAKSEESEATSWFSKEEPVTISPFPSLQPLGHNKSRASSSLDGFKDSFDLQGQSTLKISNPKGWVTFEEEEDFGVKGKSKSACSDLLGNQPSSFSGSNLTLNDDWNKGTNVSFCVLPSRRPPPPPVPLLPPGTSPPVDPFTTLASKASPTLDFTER
UniProt Q13033: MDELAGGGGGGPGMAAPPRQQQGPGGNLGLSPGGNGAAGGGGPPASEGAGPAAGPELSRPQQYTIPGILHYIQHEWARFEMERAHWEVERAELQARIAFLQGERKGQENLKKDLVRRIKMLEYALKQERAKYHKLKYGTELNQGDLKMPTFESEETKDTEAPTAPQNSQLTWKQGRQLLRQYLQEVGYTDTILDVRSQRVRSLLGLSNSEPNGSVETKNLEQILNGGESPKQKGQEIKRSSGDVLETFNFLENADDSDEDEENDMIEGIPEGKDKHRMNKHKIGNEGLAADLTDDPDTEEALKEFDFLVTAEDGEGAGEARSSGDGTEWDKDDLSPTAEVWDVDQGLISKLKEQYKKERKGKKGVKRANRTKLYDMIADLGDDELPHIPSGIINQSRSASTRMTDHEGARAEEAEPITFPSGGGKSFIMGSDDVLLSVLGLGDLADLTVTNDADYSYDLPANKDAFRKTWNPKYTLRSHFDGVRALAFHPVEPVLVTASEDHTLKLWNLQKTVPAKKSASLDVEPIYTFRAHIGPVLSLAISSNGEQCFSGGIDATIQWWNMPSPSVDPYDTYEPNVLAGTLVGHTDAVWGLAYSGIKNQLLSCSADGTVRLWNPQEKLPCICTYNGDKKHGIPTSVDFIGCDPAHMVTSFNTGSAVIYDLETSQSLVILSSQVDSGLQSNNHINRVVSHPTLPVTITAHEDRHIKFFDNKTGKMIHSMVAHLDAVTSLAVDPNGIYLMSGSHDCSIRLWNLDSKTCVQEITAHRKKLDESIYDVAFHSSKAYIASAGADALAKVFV
UniProt Q15545, whole entry, looked up: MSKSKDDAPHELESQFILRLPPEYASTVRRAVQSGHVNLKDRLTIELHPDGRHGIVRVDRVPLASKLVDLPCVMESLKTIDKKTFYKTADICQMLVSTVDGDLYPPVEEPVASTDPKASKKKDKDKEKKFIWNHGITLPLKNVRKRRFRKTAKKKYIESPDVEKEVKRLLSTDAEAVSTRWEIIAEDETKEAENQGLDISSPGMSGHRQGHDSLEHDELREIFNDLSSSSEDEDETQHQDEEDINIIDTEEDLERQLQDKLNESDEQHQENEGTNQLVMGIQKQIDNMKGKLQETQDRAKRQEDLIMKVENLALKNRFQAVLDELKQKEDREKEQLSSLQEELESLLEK
UniProt O00186: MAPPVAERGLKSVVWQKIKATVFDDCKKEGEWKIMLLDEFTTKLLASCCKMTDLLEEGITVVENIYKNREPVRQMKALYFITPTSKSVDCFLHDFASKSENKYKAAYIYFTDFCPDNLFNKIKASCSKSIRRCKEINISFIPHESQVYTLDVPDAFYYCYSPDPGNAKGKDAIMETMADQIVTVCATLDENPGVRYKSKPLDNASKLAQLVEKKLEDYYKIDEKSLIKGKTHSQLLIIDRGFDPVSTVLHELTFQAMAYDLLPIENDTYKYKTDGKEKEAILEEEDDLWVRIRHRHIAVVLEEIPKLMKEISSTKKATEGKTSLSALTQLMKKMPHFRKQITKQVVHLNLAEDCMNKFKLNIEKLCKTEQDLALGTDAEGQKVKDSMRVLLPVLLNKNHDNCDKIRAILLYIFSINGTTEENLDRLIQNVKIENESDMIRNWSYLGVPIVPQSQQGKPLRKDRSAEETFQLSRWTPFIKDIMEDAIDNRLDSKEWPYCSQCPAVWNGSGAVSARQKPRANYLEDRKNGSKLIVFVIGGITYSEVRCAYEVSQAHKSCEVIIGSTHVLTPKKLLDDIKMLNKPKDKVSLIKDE
UniProt Q12962, whole entry, looked up: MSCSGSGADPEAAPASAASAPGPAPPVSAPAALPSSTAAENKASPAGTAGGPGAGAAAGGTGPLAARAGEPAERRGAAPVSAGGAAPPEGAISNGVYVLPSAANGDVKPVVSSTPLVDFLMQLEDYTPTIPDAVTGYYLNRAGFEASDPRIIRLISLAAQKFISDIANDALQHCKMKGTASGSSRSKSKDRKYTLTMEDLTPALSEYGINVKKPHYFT
UniProt O75528: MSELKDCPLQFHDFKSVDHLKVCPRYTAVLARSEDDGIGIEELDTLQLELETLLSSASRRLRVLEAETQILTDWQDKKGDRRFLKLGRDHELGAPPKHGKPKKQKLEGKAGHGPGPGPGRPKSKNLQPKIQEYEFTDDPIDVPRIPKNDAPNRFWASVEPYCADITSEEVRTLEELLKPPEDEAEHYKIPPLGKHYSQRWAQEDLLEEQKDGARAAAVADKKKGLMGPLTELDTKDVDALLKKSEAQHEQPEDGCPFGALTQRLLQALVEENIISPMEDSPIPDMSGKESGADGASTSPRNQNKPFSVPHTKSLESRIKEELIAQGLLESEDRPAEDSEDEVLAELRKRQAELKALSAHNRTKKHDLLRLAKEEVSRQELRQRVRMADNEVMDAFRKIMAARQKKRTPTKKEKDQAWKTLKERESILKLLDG

Tests used:
Assay in all cases: log2 fold change, soluble protein after heating vs DMSO (PISA); higher = thermal stabilisation; K562 cells, 10 uM, 30 min; active = over 0.2 and 3.5 SD of the protein, either way, in both replicates (recomputed)
saracatinib = compound: CN1CCN(CCOc2cc(OC3CCOCC3)c3c(Nc4c(Cl)ccc5c4OCO5)ncnc3c2)CC1 [saracatinib]
How it was run: (§1)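 Quantification of soluble protein used TMTpro 16plex LC-MS/MS, with channel sums equalised. Samples were the supernatant after 21,000xg for 90 min of pooled aliquots from K562 cells (2×10^6 cells/mL) treated with 10 μM compound for 30 min, heated for 3 min over 48°C-58°C, and extracted in PBS with 0.5% NP-40 at 4°C. Values, from duplicates, describe thermal stability against control samples on a log2 fold-change scale.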

sotrastaurin = compound: CN1CCN(c2nc(C3=C(c4c[nH]c5ccccc45)C(=O)NC3=O)c3ccccc3n2)CC1 [sotrastaurin]
How it was run: as §1

alvocidib = compound: CN1CC[C@H](c2c(O)cc(O)c3c(=O)cc(-c4ccccc4Cl)oc23)[C@H](O)C1 [alvocidib]
How it was run: as §1

Tubastatin A = compound: CN1CCc2c(c3ccccc3n2Cc2ccc(C(=O)NO)cc2)C1 [Tubastatin A]
How it was run: as §1

[1] = compound: CNC(=O)C1=CC=CC=C1NC2=NC(=NC=C2Cl)NC3=C(C=C(C=C3)N4CCOCC4)OC
How it was run: as §1

defactinib = compound: CNC(=O)c1ccc(Nc2ncc(C(F)(F)F)c(NCc3nccnc3N(C)S(C)(=O)=O)n2)cc1 [defactinib]
How it was run: as §1

rucaparib = compound: CNCc1ccc(-c2[nH]c3cc(F)cc4c3c2CCNC4=O)cc1 [rucaparib]
How it was run: as §1

[2] = compound: CNc1nc(-c2ccc3c(N)n[nH]c3c2)cc(N2C[C@@H](C(=O)NC3CCCCC3)CC[C@H]2C)n1
How it was run: as §1

encorafenib = compound: COC(=O)N[C@@H](C)CNc1nccc(-c2cn(C(C)C)nc2-c2cc(Cl)cc(NS(C)(=O)=O)c2F)n1 [encorafenib]
How it was run: as §1

[3] = compound: COC(=O)[C@H](CCSC)NC(=O)C1=C(C=C(C=C1)NC[C@H](CS)N)C2=CC=CC=C2
How it was run: as §1

[4] = compound: COC1=CC=C(C=C1)CN2C=CC3=C2C=C(C=C3)C(=O)NO
How it was run: as §1

filanesib = compound: CON(C)C(=O)N1N=C(c2cc(F)ccc2F)S[C@@]1(CCCN)c1ccccc1 [filanesib]
How it was run: as §1

zotarolimus = compound: CO[C@H]1C[C@@H]2CC[C@@H](C)[C@@](O)(O2)C(=O)C(=O)N2CCCC[C@H]2C(=O)O[C@H]([C@H](C)C[C@@H]2CC[C@H](n3cnnn3)[C@H](OC)C2)CC(=O)[C@H](C)/C=C(\C)[C@@H](O)[C@@H](OC)C(=O)[C@H](C)C[C@H](C)/C=C/C=C/C=C/1C [zotarolimus]
How it was run: as §1

idasanutlin = compound: COc1cc(C(=O)O)ccc1NC(=O)[C@@H]1N[C@@H](CC(C)(C)C)[C@](C#N)(c2ccc(Cl)cc2F)[C@H]1c1cccc(Cl)c1F [idasanutlin]
How it was run: as §1

alisertib = compound: COc1cc(Nc2ncc3c(n2)-c2ccc(Cl)cc2C(c2c(F)cccc2OC)=NC3)ccc1C(=O)O [alisertib]
How it was run: as §1

[5] = compound: COc1cc2nc(-c3cc(F)ccc3O)nc(N[C@@H]3CNC[C@H]3C(C)(C)O)c2cc1OC
How it was run: as §1

gefitinib = compound: COc1cc2ncnc(Nc3ccc(F)c(Cl)c3)c2cc1OCCCN1CCOCC1 [gefitinib]
How it was run: as §1

[6] = compound: COc1cccc2cc(-c3nc([C@H]4CC[C@H](C(=O)O)CC4)n4ncnc(N)c34)[nH]c12
How it was run: as §1

lapatinib = compound: CS(=O)(=O)CCNCc1ccc(-c2ccc3ncnc(Nc4ccc(OCc5cccc(F)c5)c(Cl)c4)c3c2)o1 [lapatinib]
How it was run: as §1

pictilisib = compound: CS(=O)(=O)N1CCN(Cc2cc3nc(-c4cccc5[nH]ncc45)nc(N4CCOCC4)c3s2)CC1 [pictilisib]
How it was run: as §1

Measured: log2 fold change

STX6 (UniProt O43752)
inactive: saracatinib 0.015 | sotrastaurin -0.039 | alvocidib 0.019 | Tubastatin A 0.051 | [1] 0 | defactinib -0.053 | rucaparib 0.026 | [2] 0.004 | encorafenib 0.006 | [3] 0.005 | [4] 0.08 | filanesib 0.056 | zotarolimus 0.026 | idasanutlin -0.133 | alisertib -0.122 | [5] 0.064 | gefitinib -0.019 | [6] 0.009 | lapatinib -0.01 | pictilisib 0.008

SYF2 (UniProt O95926)
inactive: saracatinib -0.028 | sotrastaurin -0.041 | Tubastatin A -0.016 | [1] -0.086 | defactinib 0.286 | rucaparib 0.029 | [2] -0.14 | encorafenib -0.062 | [3] 0.038 | [4] -0.236 | filanesib 0.069 | zotarolimus -0.174 | idasanutlin 0.058 | alisertib -0.07 | [5] 0.191 | gefitinib -0.109 | [6] 0.02 | lapatinib -0.025 | pictilisib -0.092
active: alvocidib 0.383

TAPT1 (UniProt Q6NXT6)
inactive: saracatinib 0.017 | sotrastaurin 0.036 | alvocidib -0.054 | Tubastatin A 0.021 | [1] -0.017 | defactinib -0.02 | rucaparib -0.023 | [2] -0.064 | encorafenib 0.029 | [3] 0.013 | [4] -0.058 | filanesib 0.011 | zotarolimus -0.023 | idasanutlin -0.033 | alisertib -0.066 | [5] -0.042 | gefitinib 0.029 | [6] 0.062 | lapatinib -0.029 | pictilisib 0.024

STX18 (UniProt Q9P2W9)
inactive: saracatinib -0.093 | sotrastaurin -0.094 | alvocidib -0.101 | Tubastatin A -0.003 | [1] -0.058 | defactinib -0.02 | rucaparib 0.043 | [2] -0.113 | encorafenib 0.049 | [3] 0.011 | [4] 0.007 | filanesib 0.003 | zotarolimus -0.015 | idasanutlin -0.033 | alisertib -0.05 | [5] 0.049 | gefitinib -0.005 | [6] -0.003 | lapatinib -0.029 | pictilisib 0.099

2 records picked at random from those above, as already listed:
STX18 (UniProt Q9P2W9)
inactive: saracatinib -0.093 | sotrastaurin -0.094 | alvocidib -0.101 | Tubastatin A -0.003 | [1] -0.058 | defactinib -0.02 | rucaparib 0.043 | [2] -0.113 | encorafenib 0.049 | [3] 0.011 | [4] 0.007 | filanesib 0.003 | zotarolimus -0.015 | idasanutlin -0.033 | alisertib -0.05 | [5] 0.049 | gefitinib -0.005 | [6] -0.003 | lapatinib -0.029 | pictilisib 0.099

SYF2 (UniProt O95926)
inactive: saracatinib -0.028 | sotrastaurin -0.041 | Tubastatin A -0.016 | [1] -0.086 | defactinib 0.286 | rucaparib 0.029 | [2] -0.14 | encorafenib -0.062 | [3] 0.038 | [4] -0.236 | filanesib 0.069 | zotarolimus -0.174 | idasanutlin 0.058 | alisertib -0.07 | [5] 0.191 | gefitinib -0.109 | [6] 0.02 | lapatinib -0.025 | pictilisib -0.092
active: alvocidib 0.383

Carrying on:

SYNCRIP isoform 3 (UniProt O60506)
inactive: saracatinib -0.014 | sotrastaurin -0.229 | alvocidib 0.137 | Tubastatin A -0.01 | [1] 0.016 | defactinib 0.166 | rucaparib 0.23 | [2] -0.005 | encorafenib -0.005 | [3] 0 | [4] -0.203 | filanesib -0.125 | zotarolimus -0.022 | idasanutlin 0.053 | alisertib -0.067 | [5] -0.013 | gefitinib 0.007 | [6] -0.094 | lapatinib 0.03 | pictilisib -0.232

SYNGR2 (UniProt O43760)
inactive: saracatinib 0.016 | sotrastaurin 0.086 | alvocidib 0.106 | Tubastatin A -0.022 | [1] 0.018 | defactinib -0.008 | rucaparib -0.023 | [2] -0.1 | encorafenib -0.035 | [3] 0.027 | [4] -0.078 | filanesib 0.009 | zotarolimus -0.051 | idasanutlin 0.028 | alisertib -0.136 | [5] -0.009 | gefitinib 0.074 | [6] 0.099 | lapatinib 0.095 | pictilisib -0.002

STXBP1 (UniProt P61764)
inactive: saracatinib -0.069 | sotrastaurin -0.192 | alvocidib -0.116 | Tubastatin A 0.388 | [1] -0.039 | defactinib -0.241 | rucaparib 0.075 | [2] 0.122 | encorafenib -0.003 | [3] -0.101 | [4] 0.235 | filanesib -0.08 | zotarolimus 0.094 | idasanutlin 0.103 | alisertib -0.021 | [5] 0.037 | gefitinib 0.02 | [6] -0.003 | lapatinib 0.138 | pictilisib 0.017

STRIP1 (UniProt Q5VSL9)
inactive: saracatinib 0.03 | sotrastaurin -0.025 | alvocidib 0.028 | Tubastatin A -0.011 | [1] 0.018 | defactinib -0.124 | rucaparib 0.002 | [2] -0.059 | encorafenib 0.137 | [3] -0.067 | [4] -0.088 | filanesib -0.034 | zotarolimus 0.029 | idasanutlin -0.052 | alisertib -0.077 | [5] -0.055 | gefitinib -0.003 | [6] -0.057 | lapatinib 0.09 | pictilisib 0.021

SURF6 (UniProt O75683)
inactive: saracatinib -0.043 | sotrastaurin -0.091 | alvocidib 0.312 | Tubastatin A 0.023 | [1] -0.009 | defactinib 0.168 | rucaparib 0.217 | [2] 0.054 | encorafenib 0.044 | [3] 0.003 | [4] 0.026 | filanesib 0.335 | zotarolimus 0.065 | idasanutlin 0.159 | alisertib -0.116 | [5] -0.008 | gefitinib 0.018 | [6] -0.093 | lapatinib 0.379 | pictilisib -0.014

SYNJ1 (UniProt O43426)
inactive: saracatinib 0.04 | sotrastaurin 0.032 | alvocidib 0.031 | Tubastatin A -0.019 | [1] -0.095 | defactinib -0.034 | rucaparib 0.086 | [2] -0.071 | encorafenib 0.025 | [3] -0.118 | [4] -0.07 | filanesib 0.09 | zotarolimus 0.007 | idasanutlin 0.021 | alisertib -0.072 | [5] 0.095 | gefitinib 0.075 | [6] 0.059 | lapatinib 0.076 | pictilisib 0.148

STRN3 (UniProt Q13033)
inactive: saracatinib -0.011 | sotrastaurin -0.014 | alvocidib -0.024 | Tubastatin A -0.01 | [1] 0.014 | defactinib -0.04 | rucaparib 0.007 | [2] -0.003 | encorafenib -0.002 | [3] 0 | [4] 0.038 | filanesib 0.031 | zotarolimus -0.005 | idasanutlin 0.042 | alisertib -0.04 | [5] -0.006 | gefitinib -0.041 | [6] -0.011 | lapatinib 0.034 | pictilisib -0.025

TAF7 (UniProt Q15545)
inactive: saracatinib 0.034 | sotrastaurin -0.027 | alvocidib -0.036 | Tubastatin A 0.101 | [1] -0.021 | defactinib -0.107 | rucaparib -0.046 | [2] -0.009 | encorafenib -0.004 | [3] -0.001 | [4] -0.091 | filanesib 0.063 | zotarolimus 0.03 | idasanutlin -0.004 | alisertib -0.066 | [5] -0.014 | gefitinib 0.031 | [6] -0.031 | lapatinib 0.012 | pictilisib -0.05

STXBP3 (UniProt O00186)
inactive: saracatinib -0.06 | sotrastaurin -0.272 | alvocidib -0.053 | Tubastatin A 0.087 | [1] -0.071 | defactinib -0.052 | rucaparib 0.181 | [2] 0.092 | encorafenib 0.156 | [3] -0.063 | [4] 0.169 | filanesib -0.002 | zotarolimus 0.098 | idasanutlin 0.01 | alisertib 0.003 | [5] 0.012 | gefitinib -0.016 | [6] -0.092 | lapatinib 0.042 | pictilisib -0.019

TAF10 (UniProt Q12962)
inactive: saracatinib 0.049 | sotrastaurin 0.027 | alvocidib 0.009 | Tubastatin A -0.107 | [1] 0.005 | defactinib -0.005 | rucaparib -0.043 | [2] -0.061 | encorafenib -0.014 | [3] -0.085 | [4] 0.021 | filanesib 0.014 | zotarolimus -0.01 | idasanutlin -0.03 | alisertib -0.114 | [5] -0.086 | gefitinib 0.003 | [6] -0.027 | lapatinib 0.016 | pictilisib 0.04

TADA3 (UniProt O75528)
inactive: saracatinib -0.026 | sotrastaurin -0.023 | alvocidib -0.071 | Tubastatin A 0 | [1] 0.062 | defactinib -0.038 | rucaparib -0.068 | [2] -0.048 | encorafenib -0.014 | [3] 0.047 | [4] 0.03 | filanesib -0.048 | zotarolimus 0.016 | idasanutlin -0.041 | alisertib -0.055 | [5] -0.022 | gefitinib 0.01 | [6] -0.015 | lapatinib -0.044 | pictilisib -0.008

SYNCRIP (UniProt O60506)
inactive: saracatinib -0.042 | sotrastaurin 0.002 | alvocidib 0.12 | Tubastatin A 0.027 | [1] 0.022 | defactinib 0.158 | rucaparib 0.124 | [2] -0.004 | encorafenib 0.066 | [3] 0.009 | [4] -0.044 | filanesib 0.113 | zotarolimus -0.037 | idasanutlin 0.084 | alisertib -0.069 | [5] -0.036 | gefitinib -0.052 | [6] -0.082 | lapatinib 0.053 | pictilisib -0.053
